Source: paper PMC9820583
Positions count from the first letter of the chain named. No constants are given. Whether binding was seen depends on the method and setting. Binding seen in cells or lysates may run through a third protein. Some entries that bind do so weakly or less than the wild type.

T1: cyclin-dependent kinase-like 5 (CDKL5), endogenous in mouse brain (mouse (endogenous in brain)) (UniProt Q3UTQ8)
T1 sequence: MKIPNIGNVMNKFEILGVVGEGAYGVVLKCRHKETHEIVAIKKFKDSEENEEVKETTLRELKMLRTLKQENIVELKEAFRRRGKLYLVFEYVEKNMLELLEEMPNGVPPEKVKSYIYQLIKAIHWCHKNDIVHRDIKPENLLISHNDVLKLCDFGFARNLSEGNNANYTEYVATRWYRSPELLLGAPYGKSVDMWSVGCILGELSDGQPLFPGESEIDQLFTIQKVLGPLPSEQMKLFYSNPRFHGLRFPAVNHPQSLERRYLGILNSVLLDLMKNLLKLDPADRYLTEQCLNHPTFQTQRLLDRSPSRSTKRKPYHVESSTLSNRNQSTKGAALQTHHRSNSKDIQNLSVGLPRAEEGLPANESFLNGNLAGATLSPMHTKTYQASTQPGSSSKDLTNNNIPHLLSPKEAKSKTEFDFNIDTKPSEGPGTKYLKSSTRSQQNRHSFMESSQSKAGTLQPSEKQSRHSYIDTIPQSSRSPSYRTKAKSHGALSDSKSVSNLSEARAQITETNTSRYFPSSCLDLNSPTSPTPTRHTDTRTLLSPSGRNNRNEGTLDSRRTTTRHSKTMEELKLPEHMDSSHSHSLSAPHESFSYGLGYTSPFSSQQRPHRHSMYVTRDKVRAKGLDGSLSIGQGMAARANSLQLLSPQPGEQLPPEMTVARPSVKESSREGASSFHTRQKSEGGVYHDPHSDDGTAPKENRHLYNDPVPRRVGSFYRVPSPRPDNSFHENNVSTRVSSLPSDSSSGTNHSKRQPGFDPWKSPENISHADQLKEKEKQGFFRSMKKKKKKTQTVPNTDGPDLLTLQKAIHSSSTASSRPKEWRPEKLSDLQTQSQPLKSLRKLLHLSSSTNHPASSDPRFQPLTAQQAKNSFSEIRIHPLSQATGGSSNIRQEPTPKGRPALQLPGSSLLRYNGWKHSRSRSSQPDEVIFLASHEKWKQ

T2: CDKL5, endogenous in HEK293T cells (human (endogenous in HEK293T)) (UniProt O76039)
T2 sequence: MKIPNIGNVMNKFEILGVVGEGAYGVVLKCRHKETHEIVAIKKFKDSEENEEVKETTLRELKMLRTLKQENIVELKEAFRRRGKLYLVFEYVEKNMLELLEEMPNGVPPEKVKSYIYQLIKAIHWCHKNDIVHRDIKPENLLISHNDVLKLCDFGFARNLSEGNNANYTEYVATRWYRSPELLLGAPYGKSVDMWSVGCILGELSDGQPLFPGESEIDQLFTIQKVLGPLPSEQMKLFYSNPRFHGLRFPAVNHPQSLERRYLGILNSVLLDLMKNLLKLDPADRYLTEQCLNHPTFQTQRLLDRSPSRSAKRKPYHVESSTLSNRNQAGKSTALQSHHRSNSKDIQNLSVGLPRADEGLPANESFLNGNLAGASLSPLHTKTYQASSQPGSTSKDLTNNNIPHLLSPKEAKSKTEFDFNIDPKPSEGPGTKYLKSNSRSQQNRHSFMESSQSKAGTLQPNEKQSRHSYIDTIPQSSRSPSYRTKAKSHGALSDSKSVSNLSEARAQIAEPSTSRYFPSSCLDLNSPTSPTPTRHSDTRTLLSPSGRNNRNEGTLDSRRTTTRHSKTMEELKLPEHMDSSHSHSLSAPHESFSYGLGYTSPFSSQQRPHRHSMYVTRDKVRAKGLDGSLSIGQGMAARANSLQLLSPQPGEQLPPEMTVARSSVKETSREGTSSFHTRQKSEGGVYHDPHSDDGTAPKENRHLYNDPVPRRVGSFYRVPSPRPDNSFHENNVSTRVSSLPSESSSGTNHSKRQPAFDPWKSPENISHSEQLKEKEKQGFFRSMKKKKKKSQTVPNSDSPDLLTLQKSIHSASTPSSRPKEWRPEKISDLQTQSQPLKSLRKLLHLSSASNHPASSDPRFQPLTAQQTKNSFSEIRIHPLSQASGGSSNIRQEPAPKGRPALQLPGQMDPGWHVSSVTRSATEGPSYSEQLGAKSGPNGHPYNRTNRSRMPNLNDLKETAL

B1: collybistin, endogenous in mouse brain (protein, UniProt Q3UTH8 1-516)
chain: MYDLITGDSIVSAEAVWDHVTMANRELAFKAGDVIKVLDASNKDWWWGQIDDEEGWFPASFVRLWVNQEDGVEEGPSDVQNGHLDPNSDCLCLGRPLQNRDQMRANVINEIMSTERHYIKHLKDICEGYLKQCRKRRDMFSDEQLKVIFGNIEDIYRFQMGFVRDLEKQYNNDDPHLSEIGPCFLEHQDGFWIYSEYCNNHLDACMELSKLMKDSRYQHFFEACRLLQQMIDIAIDGFLLTPVQKICKYPLQLAELLKYTAQDHSDYRYVAAALAVMRNVTQQINERKRRLENIDKIAQWQASVLDWEGEDILDRSSELIYTGEMAWIYQPYGRNQQRVFFLFDHQMVLCKKDLIRRDILYYKGRIDMDKYEVIDIEDGRDDDFNVSMKNAFKLHNKETEEVHLFFAKKLEEKIRWLRAFREERKMVQEDEKIGFEISENQKRQAAMTVRKASKQKGVNSARSVPPSYPPPQDPLNQGQYLVPDGIAQSQVFEFTEPKRSQSPFWQNFSRLTPFKK
B2: collybistin, endogenous in HEK293T cells (protein, UniProt O43307 1-516)
chain: B1 chain with Y2T, D3L, G71E, I374V, V402I, A452V, S453P, Q477H

How the values were obtained:
[1] = target: T1, cyclin-dependent kinase-like 5 (CDKL5), endogenous in mouse brain (mouse (endogenous in brain)); assay: co-IP; CDKL5 immunoprecipitated with 1 µg anti-CDKL5 from 1 mg mouse brain extract (PND20-30); lysis buffer 50 mM Tris-HCl pH 7.4, 150 mM NaCl, 1 mM EDTA, 1 mM EGTA, 1% Triton X-100; overnight at 4 °C; protein-G agarose; unrelated IgGs as control; western blotting
[2] = target: T2, CDKL5, endogenous in HEK293T cells (human (endogenous in HEK293T)); assay: co-IP; CDKL5 immunoprecipitated with 1 µg monoclonal anti-CDKL5 from 400 µg of HEK293T cells expressing Flag-CDKL5 and Myc-CB2; lysis buffer 50 mM Tris-HCl pH 7.4, 150 mM NaCl, 1 mM EDTA, 1 mM EGTA, 1% Triton X-100; overnight at 4 °C; protein-G agarose; western blotting with anti-CDKL5 and anti-CB

Row | Binder | binding [1] | binding [2]
1 | B1 | binds | –
2 | B2 | – | binds
